In patent US20260263357A1, “PHASE SHIFTING INTRAVITREAL TAMPONADE” (Avant Sciences, Inc., priority 2023, published 2026):

Test system: New Zealand white rabbits
Experiment: Fundus imaging of tamponade bubble after injection into rabbit vitreous cavity (phase shift and removal)
Type: in vivo
Settings: 8 microliters injected into rabbit vitreous cavity
Experimental: The biological safety of a compound of Structure 1 is tested within an animal model. In particular, 2,2,2-Trifluoroethyl 1,1,2,2-tetrafluoroethyl ether was tested within a New Zealand white rabbits, an animal model in line with previous retinal tamponade studies (Santos et al., Retina, 33 (1): p 120-127 (1991)).
(§1) FIG. 1A includes a set of control retinal fundus images (near-infrared images IR and corresponding color images MC) for which balanced salt solution BSS (effectively water) was injected into a rabbit vitreous cavity. […] In other words, 2,2,2-Trifluoroethyl 1,1,2,2-tetrafluoroethyl ether was empirically determined to successfully phase shift under biological conditions at around 1 week post placement, and then subsequently carried out of the body over the next 2 months. […]
as §1, with “6A” for “1A”, “1,1,2,3,3,3-Hexafluoropropyl difluoromethyl” for “2,2,2-Trifluoroethyl 1,1,2,2-tetrafluoroethyl”, “1-3 days” for “1 week”, “subsequently fully” for “subsequently”, “by Day 8.” for “over the next 2 months.”

| SMILES | Time to phase shift (liquid to gas) under biological conditions post placement (fundus images to D30) | Time to phase shift (liquid to gas) under biological conditions post placement (fundus images to D56) |
| --- | --- | --- |
| FC(F)OC(F)(F)C(F)C(F)(F)F (centres unmarked) [1,1,2,3,3,3-Hexafluoropropyl difluoromethyl ether] | 1-3 days | – |
| FC(F)C(F)(F)OCC(F)(F)F [2,2,2-Trifluoroethyl 1,1,2,2-tetrafluoroethyl ether] | – | around 1 week |
